One assay deals with T1, wild-type CLPTM1L-HA (UniProt Q96KA5).
T1 sequence: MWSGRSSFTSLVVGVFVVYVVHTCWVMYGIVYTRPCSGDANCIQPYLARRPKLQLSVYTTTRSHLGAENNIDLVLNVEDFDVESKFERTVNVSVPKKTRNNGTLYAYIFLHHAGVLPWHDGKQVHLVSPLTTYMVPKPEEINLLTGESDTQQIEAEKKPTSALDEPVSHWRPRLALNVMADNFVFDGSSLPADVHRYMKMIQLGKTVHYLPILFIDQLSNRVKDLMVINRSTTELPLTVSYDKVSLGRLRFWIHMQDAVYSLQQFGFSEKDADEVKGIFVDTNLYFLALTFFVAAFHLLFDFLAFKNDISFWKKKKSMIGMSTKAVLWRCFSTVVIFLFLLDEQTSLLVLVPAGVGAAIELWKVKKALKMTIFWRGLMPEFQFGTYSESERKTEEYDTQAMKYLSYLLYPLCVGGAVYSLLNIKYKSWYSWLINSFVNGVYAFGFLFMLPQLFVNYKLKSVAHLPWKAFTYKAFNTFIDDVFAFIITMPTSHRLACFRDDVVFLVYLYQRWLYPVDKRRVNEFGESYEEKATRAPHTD
Briefly: co-IP; 293T cells co-transfected with ERLIN2-FLAG and CLPTM1L-HA (wild type or deletion mutants); immunoprecipitation with anti-HA antibodies, immunoblot.

In the next assay the target is CLPTM1L-HA-ΔC2 (UniProt Q96KA5). The description is as above.

Results are given in words; binding and its absence hold for the method and conditions named. In cells and extracts the contact can be indirect. Where a sequence is shown, tags or fusion partners need not be part of it.

In the case of ERLIN2-FLAG-ΔL5 (from UniProt O94905), the binding result in the assay with wild-type CLPTM1L-HA is reported as “no binding”.

B1: wild-type ERLIN2-FLAG (protein, UniProt O94905 1-339)
chain: MAQLGAVVAVASSFFCASLFSAVHKIEEGHIGVYYRGGALLTSTSGPGFHLMLPFITSYKSVQTTLQTDEVKNVPCGTSGGVMIYFDRIEVVNFLVPNAVYDIVKNYTADYDKALIFNKIHHELNQFCSVHTLQEVYIELFDQIDENLKLALQQDLTSMAPGLVIQAVRVTKPNIPEAIRRNYELMESEKTKLLIAAQKQKVVEKEAETERKKALIEAEKVAQVAEITYGQKVMEKETEKKISEIEDAAFLAREKAKADAECYTAMKIAEANKLKLTPEYLQLMKYKAIASNSKIYFGKDIPNMFMDSAGSVSKQFEGLADKLSFGLEDEPLETATKEN
B1: the binding entry in the assay with CLPTM1L-HA-ΔC2 is “no binding”.

The values are drawn from PMC12185749.
